In publication PMC7229829, “Distortion of double-stranded DNA structure by the binding of the restriction DNA glycosylase R.PabI” (Nucleic Acids Research, 2020):
Positions count from the first letter of the chain named. The exact form of at least one protein or probe is not confirmed. For part of these data: The comparison behind a weaker result is the experiment's own reference, which may not be listed here. For part of these data: At least one verdict was read from the data and is not stated in words by the source. Tags and fusion partners may be left off the protein sequences shown.

Key:
Assay in all cases: EMSA
[1] = target: T1, R.PabI(K154A) K151A (Pyrococcus abyssi) (UniProt G8ZFZ3); conditions: 50-fold excess unlabelled nonspecific competitor (S2 duplex), EMSA: 10 mM MES pH 6.0, 300 mM NaCl, 0.1 uM probe, 25-fold (Y68F series) or 50-fold (K154A series) unlabelled nonspecific competitor, 10% PAGE, 0.5x TBE, 4 C, recombinant protein, label: 5'-fluorescein on strand 1
T1 sequence (looked up, limits assumed): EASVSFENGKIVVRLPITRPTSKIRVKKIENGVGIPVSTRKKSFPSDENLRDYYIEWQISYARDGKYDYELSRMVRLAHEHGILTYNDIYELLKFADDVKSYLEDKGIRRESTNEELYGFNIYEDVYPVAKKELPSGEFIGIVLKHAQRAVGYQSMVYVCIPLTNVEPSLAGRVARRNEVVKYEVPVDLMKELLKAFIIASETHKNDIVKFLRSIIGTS

[2] = target: T2, R.PabI(K154A-P27G-T28G) P24G,T25G,K151A (Pyrococcus abyssi) (UniProt G8ZFZ3); conditions: 50-fold excess unlabelled nonspecific competitor (S2 duplex), reduced vs K154A; EMSA: 10 mM MES pH 6.0, 300 mM NaCl, 0.1 uM probe, 25-fold (Y68F series) or 50-fold (K154A series) unlabelled nonspecific competitor; 10% PAGE, 0.5x TBE, 4 C; recombinant protein; label: 5'-fluorescein on strand 1
T2 sequence (looked up, limits assumed): T1 sequence (looked up, limits assumed) with P20G, T21G

[3] = target: T3, R.PabI(Y68F-P27G-T28G) P24G,T25G,Y65F (Pyrococcus abyssi) (UniProt G8ZFZ3); conditions: 25-fold excess unlabelled nonspecific competitor (S2 duplex), highly reduced vs Y68F; EMSA: 10 mM MES pH 6.0, 300 mM NaCl, 0.1 uM probe, 25-fold (Y68F series) or 50-fold (K154A series) unlabelled nonspecific competitor; 10% PAGE, 0.5x TBE, 4 C; recombinant protein; label: 5'-fluorescein on strand 1
T3 sequence (looked up, limits assumed): T1 sequence (looked up, limits assumed) with P20G, T21G, Y61F, A147K, A150K

[4] = target: T4, R.PabI(Y68F) Y65F (Pyrococcus abyssi) (UniProt G8ZFZ3); conditions: 25-fold excess unlabelled nonspecific competitor (S2 duplex); EMSA: 10 mM MES pH 6.0, 300 mM NaCl, 0.1 uM probe, 25-fold (Y68F series) or 50-fold (K154A series) unlabelled nonspecific competitor; 10% PAGE, 0.5x TBE, 4 C; recombinant protein; label: 5'-fluorescein on strand 1
T4 sequence (looked up, limits assumed): T1 sequence (looked up, limits assumed) with Y61F, A147K, A150K

Sequence | binding result ([1]; two shifted bands) | binding result [2] | binding result [3] | binding result [4] | binding result [1]
GGATGCATGAGTACGAGGACCATC (double strand) [specific probe (24 bp)] | binds | binds more weakly | binds more weakly | binds | –
GGATGCATGAGATCGAGGACCATC (double strand) [nonspecific probe (24 bp)] | – | binds more weakly | – | – | binds
